Assay results from patent US20220348923.

Target: Human serum albumin (HSA) (Homo sapiens) (UniProt P02768)
Test: ELONA
Conditions: 2'-F pyrimidines; no binding detected at 10-1000 nM, 25 nM HSA coating; purified native protein; label: 3'-biotin via C6-amino linker (ELONA)

Row | Sequence | Kd [nM]
1 | UCGAAUGAACCAAGGUUCCUCGGC [SAM-2.T1] | > 1000
2 | UUCGUGCCGCUGAGUGCGUACGGGC [SAM-1.T1] | > 1000
